# Laboratory results: PubChem BioAssay AID1347426 (Functional Genomics Laboratory (NCATS/FGL), 2020)
# The campaign covered roughly 31,000 sequences. About 1,400 (4.5%) were called active.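 The calls were made as follows: active = median seed-adjusted z-score above 1 or below -1; inactive = the rest.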 The list shows a part of the results.
# Assay: Novel Modifiers of Survival Motor Neuron (SMN) Protein: Gene Identification via Genome-wide siRNA Screen;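 also: luminescence tracks full-length SMN protein made from the SMN2 reporter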
# Conditions: HEK293T SMN2-luciferase reporter, siRNA knockdown, 72 h; actives lie on both sides
# Summary of the method: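 HEK293T cells stably expressing an SMN2 splicing/cDNA-luciferase reporter were reverse-transfected with a druggable-genome siRNA library and read by luminescence at 72 hours; hits defined by MAD score above 1.0 or below -1.0.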
row,Sequence,median seed-adjusted z-score
1,CUUUCCACCUGGGUACCAATT against FCGR3A,inactive: 0.0786
2,GGCUAAAGACGGCUCGAAATT against FKBP7,inactive: -0.053
3,GAGCUGGAAUCGAUUAUAATT against CD38,inactive: 0.192
4,GUCCUGCAUCUAUAUUAAATT against ZRANB2,inactive: 0.441
5,AACUCCGAGUGUCUGCUGATT against GINS2,inactive: 0.553
6,GGAAGUGGGUGUCGAAGAATT against MAN1B1,inactive: -0.88
7,CACGCACAGUACUAGGUCATT against EXOSC3,inactive: 0.569
8,GGUCAAGCCGAGGACUGAATT against PPP2R3B,inactive: 0
9,UGCCUGUGCCCUUCACCAATT against SLC9A3R1,inactive: -0.418
10,GUGAUGAGUUGAUACCAGATT against HSP90AB1,inactive: 0
11,CCACAAGGACGUAACAGAATT against CREB3L4,inactive: 0.229
12,GAACAUCUACUAUAAGAGUTT against GNMT,inactive: 0.0261
13,AGACCGUUUUAGCACGGAATT against AP1S2,inactive: -0.323
14,GCCUACCAGAAUCAACUGATT against TBX20,inactive: 0.00303
15,GGUUUGGAAUGUUUGCUAATT against DEGS1,inactive: 0.0268
16,CCACAUAGGAUGUUGGUUATT against SLCO1A2,inactive: -0.2
17,GGCGAACUGUUUUAGAAGATT against CCNB2,inactive: 0.0328
18,GUUCGACACUUGGAGAGAATT against CFL2,inactive: -0.148
19,GGAGAUAGAUAACAAUCCATT against PSIP1,inactive: 0.549
20,CACUGAGAAUGCAUCCAAATT against CYP4B1,inactive: -0.663
21,CAGUGCUAGUUUCACCAAATT against DNAJC27,inactive: 0.252
22,GCAGUUAGAUCACCGAGUUTT against FRMD4B,inactive: -0.567
23,GCUAGGAACAGAUAUCACATT against PDE6H,inactive: -0.0647

row,Sequence,median seed-adjusted z-score
1,GGAGAACAUUUUUAACGCATT against CACNA2D3,inactive: 0.198
2,GAACCAUUGCCGAGAGGUUTT against IDI2,inactive: 0.578
3,CGUACGAAGUUGAUGCUUATT against FXR1,inactive: 0.131
4,GAAAGCCUAUUAUCAGCUUTT against DNAJA3,inactive: -0.0333
5,GGACAUUUCAGUGAAAUGATT against ZNF345,inactive: -0.275
6,CGUGUAUACUCAAACACGATT against TGM6,inactive: 0.0811
7,GACUCAUCAUGAUACCAGUTT against APOF,inactive: 0.0982
8,GCUCGAUGCUGAAACGCAUTT against ARID5B,inactive: 0
9,CGAACAUCUCAAACUUACATT against BHLHB2,inactive: 0
10,CAUCCCAGAUCAAACUGUATT against TFAP2A,inactive: -0.384
11,GCUCUGAGGGAGUAUCGAATT against TROVE2,inactive: 0.399
12,AGUUGUUACUGACUAUGUUTT against SDHD,inactive: -0.538
13,GGGUAUGUAUAGGUGCAAATT against ZNF407,inactive: 0.00802
14,AAGUUAGUUUUGAAGAAUUTT against S100G,inactive: -0.809
15,GCGAGGCUGUUAACCCUUATT against PRKCQ,inactive: 0.692
16,AGAGACCCAUGGGAACAAATT against SIGMAR1,active: -1.4
17,GGGACGACAUAUAUCUUUATT against NRXN1,inactive: 0.433
18,CAUCGAUUUGAAGAAAAAUTT against DDI1,inactive: 0.259
19,AGCGACCUGUUGCACAUGATT against GALR2,inactive: -0.0832
20,CACCAUAUGUUCCACGAUUTT against EPS8,inactive: 0
21,CUAUGCUAGUCGUCCUGAATT against GALNT7,inactive: -0.63
22,CGUGAAUACCUUUUAGACATT against GATAD2B,inactive: 0.218
23,GGCAUUGAGUCAACUCCGATT against ZNF287,inactive: 0.0213

row,Sequence,median seed-adjusted z-score
1,GGAUCCUGGUGUUCAACAATT against BAI1,inactive: -0.663
2,GGACUAAAUCUACAAGUGATT against CACNG3,inactive: -0.189
3,GCAUCGCUGUAGGUUUUGATT against THBS2,inactive: -0.721
4,CACUUUUAUGAUAACCCAATT against LGR6,inactive: 0.237
5,GAACAACAGCAAAUCCGGUTT against PHF21A,inactive: 0.179
6,GGACAGCUUUCUUCGGGAATT against SULF2,inactive: -0.109
7,GGACACUGAAAUUCGCAUATT against ATP1B1,inactive: 0.971
8,CGGCUGGUUAUGUAACAAATT against QTRTD1,inactive: 0.377
9,CUGCAAUGCUGAUAUCGUATT against CNOT6,inactive: 0.146
10,GCUUGGUGAUGGUACUCCUTT against FCGR3A,inactive: 0.0786
11,GGACUUCUGAAAAUUCGCATT against EP400,active: 1.83
12,GACCUUGAAUCAGAGAUUUTT against HHEX,inactive: -0.428
13,GAUUUAGGCAGACUGCAAATT against NT5C1B,inactive: 0.0594
14,GGUCUGUGCUCAAAGUCAUTT against SEMA3G,inactive: 0.00615
15,AAACCUUAUCAAAACAAGATT against LECT2,inactive: 0.0371
16,GCAGAAACCAUGUACAGGATT against RBPJL,inactive: 0.373
17,GGACAACCUCGAAAUCUCATT against GMIP,inactive: 0.0686
18,CUAUGGAUCUUUAGGAGUATT against HSPA12A,inactive: 0.0319
19,GCUGCAUCGUAAGACAUUUTT against PCGF6,inactive: 0.536
20,CCAGAUACAUGAUCACGGATT against ACACB,inactive: 0.31
21,GGUCAAUAAUGAAAGUGGATT against AVEN,inactive: 0.184
22,GAUCAAACCUUUGUAGACATT against ZNF354C,inactive: 0.648

# Looked up above:
# Value for GGACUUCUGAAAAUUCGCATT against EP400 under median seed-adjusted z-score: active: 1.83
# Value for GGACAACCUCGAAAUCUCATT against GMIP under median seed-adjusted z-score: inactive: 0.0686
